According to patent US7118886 (HSC RESEARCH AND DEVELOPMENT LIMITED PARTNERSHIP, dated 2006):
No constants are given. Whether binding was seen depends on the method and setting. In cells and extracts the contact can be indirect. Some binding calls cover weakened binding; strength is not graded here.

Experiments:
[1] = biological target: T1, Full length mouse Eps15 expressed from pcDNA3Eps15 (mouse) (UniProt P42567); assay: co-immunoprecipitation and western blot, legend of FIG. 3B
T1 sequence (looked up): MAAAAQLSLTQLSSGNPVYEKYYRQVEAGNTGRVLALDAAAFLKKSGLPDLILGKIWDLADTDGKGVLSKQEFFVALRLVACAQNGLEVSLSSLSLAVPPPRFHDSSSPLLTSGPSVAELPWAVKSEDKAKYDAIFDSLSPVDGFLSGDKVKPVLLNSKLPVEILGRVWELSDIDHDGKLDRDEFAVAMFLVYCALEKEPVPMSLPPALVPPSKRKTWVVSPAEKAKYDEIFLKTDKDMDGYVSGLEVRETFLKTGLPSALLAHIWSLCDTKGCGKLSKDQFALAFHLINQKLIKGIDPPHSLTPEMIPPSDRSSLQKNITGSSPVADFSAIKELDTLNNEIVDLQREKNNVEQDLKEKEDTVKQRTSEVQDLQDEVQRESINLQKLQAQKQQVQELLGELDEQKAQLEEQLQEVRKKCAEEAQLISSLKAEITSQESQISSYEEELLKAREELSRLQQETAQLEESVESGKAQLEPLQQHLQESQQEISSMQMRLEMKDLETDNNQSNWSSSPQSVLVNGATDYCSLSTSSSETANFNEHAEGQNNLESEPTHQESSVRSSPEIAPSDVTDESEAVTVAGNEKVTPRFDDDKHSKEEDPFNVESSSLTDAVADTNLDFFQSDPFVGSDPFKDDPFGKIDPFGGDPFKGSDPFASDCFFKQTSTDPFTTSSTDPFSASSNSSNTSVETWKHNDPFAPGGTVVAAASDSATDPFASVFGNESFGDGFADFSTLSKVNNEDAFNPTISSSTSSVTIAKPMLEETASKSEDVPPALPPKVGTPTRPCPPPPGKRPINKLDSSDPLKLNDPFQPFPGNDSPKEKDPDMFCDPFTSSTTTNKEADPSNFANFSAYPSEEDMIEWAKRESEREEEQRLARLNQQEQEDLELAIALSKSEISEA

[2] = biological target: T1, Full length mouse Eps15 expressed from pcDNA3Eps15 (mouse); assay: co-immunoprecipitation from co-transfected Cos-1 cells, western blot with chicken anti-Ese1

- binding [1]: binds
- binding [2]: binds
B1: C-terminally truncated Ese1 (amino acids 1-736) expressed from pcDNA3Ese1δC (protein)
chain: MAQFPTPFGGSLDVWAITVEERAKHDQQFLSLKPIAGFITGDQARNFFFQSGLPQPVLAQIWALADMNNDGRMDQVEFSIAMKLIKLKLQGYQLPSTLPPVMKQQPVAISSAPAFGIGGIASMPPLTAVAPVPMGSIPVVGMSPPLVSSVPPAAVPPLANGAPPVIQPLPAFAHPAATWPKSSSFSRSGPGSQLNTKLQKAQSFDVASAPPAAEWAVPQSSRLKYRQLFNSHDKTMSGHLTGPQARTILMQSSLPQAQLASIWNLSDIDQDGKLTAEEFILAMHLIDVAMSGQPLPPVLPPEYIPPSFRRVRSGSGMSVISSSSVDQRLPEEPSSEDEQQPEKKLPVTFEDKKRENFERGSVELEKRRQALLEQQRKEQERLAQLERAEQERKERERQEQEAKRQLELEKQLEKQRELERQREEERRKEIERREAAKRELERQRQLEWERNRRQELLNQRNKEQEGTVVLKARRKTLEFELEALNDKKHQLEGKLQDIRCRLATQRQEIESTNKSRELRIAEITHLQQQLQESQQMLGRLIPEKQILSDQLKQVQQNSLHRDSLLTLKRALEAKELARQQLREQLDEVERETRSKLQEIDVFNNQLKELREIHSKQQLQKQRSLEAARLKQKEQERKSLELEKQKEDAQRRVQERDKQWLEHVQQEEQPRPRKPHEEDRLKREDSVRKKEAEERAKPEMQDKQSRLFHPHQEPAKLATQAPWSTTEKGPLTISAQE
